Data as given in patent US7897630B2, “5-aryl isoxazolines for controlling invertebrate pests” (E.I. du Pont de Nemours and Company, priority 2005, dated 2011).
Some results were stated once for a whole list of compounds, not compound by compound.

Columns and labels:
Type in all cases: in vivo
[1] = tested on: diamondback moth (Plutella xylostella); experiment: Test A: control of diamondback moth on radish plant, foliar spray; conditions: sprayed at 250 ppm; radish plant with neonate larvae; assessed after 6 days; criterion met by feeding damage <=20% or mortality >=80%
[2] = tested on: fall armyworm (Spodoptera frugiperda); experiment: Test B: control of fall armyworm on corn (maize) plant, foliar spray; conditions: sprayed at 250 ppm; corn plant with 1-day-old larvae; rated as in Test A; criterion met by feeding damage <=20% or mortality >=80%
[3] = tested on: potato leafhopper (Empoasca fabae Harris); experiment: Test D: control of potato leafhopper on Longio bean plant, contact and/or systemic; conditions: sprayed at 250 ppm, adults, 6 days
[4] = tested on: Western Flower Thrips (Fraukliniella occidentalis); experiment: Test F: control of Western Flower Thrips on Longio Bean plant, contact and/or systemic; conditions: sprayed at 250 ppm, adult thrips, 7 days

SMILES	control efficacy (20% or less feeding damage or 80% or more mortality) [1]	control efficacy (20% or less feeding damage or 80% or more mortality) [2]	mortality [3]	mortality [4]
Fc1cc(C2=NOC(c3cc(Cl)cc(Cl)c3)(C(F)(F)F)C2)ccc1-n1cncn1 (racemic) [Compound 16]	≥ 80%	≥ 80%	≥ 80%	≥ 80%
Cc1cc(C2=NOC(c3cc(Cl)cc(Cl)c3)(C(F)(F)F)C2)ccc1-n1ccnn1 (racemic) [Compound 18]	≥ 80%	≥ 80%	≥ 80%	
COC(=O)Nc1cc(C2=NOC(c3cc(Cl)cc(Cl)c3)(C(F)(F)F)C2)ccc1-n1cncn1 (racemic) [Compound 60]	≥ 80%	≥ 80%	≥ 80%	
N#Cc1cc(C2=NOC(c3cc(Cl)cc(Cl)c3)(C(F)(F)F)C2)ccc1-n1ncnn1 (racemic) [Compound 71]	≥ 80%	≥ 80%	≥ 80%	
COC(=O)c1cc(C2=NOC(c3cc(Cl)cc(Cl)c3)(C(F)(F)F)C2)ccc1-n1cncn1 (racemic) [Compound 74]		≥ 80%		≥ 80%
CSc1ccc(C2=NOC(c3cc(Cl)cc(Cl)c3)(C(F)(F)F)C2)cc1Br (racemic) [Compound 205]	≥ 80%	≥ 80%		≥ 80%
Cc1cc(C2=NOC(c3cc(Cl)cc(Cl)c3)(C(F)(F)F)C2)ccc1S(=O)(=O)NCC1CC1 (stereo not shown) [Compound 107]	≥ 80%	≥ 80%	≥ 80%	
Cc1cc(C2=NOC(c3cc(Cl)cc(Cl)c3)(C(F)(F)F)C2)ccc1S(=O)(=O)N(C)C (stereo not shown) [Compound 108]	≥ 80%	≥ 80%	≥ 80%	
CNS(=O)(=O)c1ccc(C2=NOC(c3cc(Cl)cc(Cl)c3)(C(F)(F)F)C2)cc1C (stereo not shown) [Compound 111]	≥ 80%	≥ 80%	≥ 80%	
CCNS(=O)(=O)c1ccc(C2=NOC(c3cc(Cl)cc(Cl)c3)(C(F)(F)F)C2)cc1C (stereo not shown) [Compound 123]	≥ 80%	≥ 80%		
C[S+]([O-])c1ccc(C2=NOC(c3cc(Cl)cc(Cl)c3)(C(F)(F)F)C2)cc1C#N (stereo not shown) [Compound 207]	≥ 80%	≥ 80%	≥ 80%	
CS(=O)(=O)c1ccc(C2=NOC(c3cc(Cl)cc(Cl)c3)(C(F)(F)F)C2)cc1C#N (stereo not shown) [Compound 208]	≥ 80%	≥ 80%		
CS(=O)(=O)c1ccc(C2=NOC(c3cc(Cl)cc(Cl)c3)(C(F)(F)F)C2)cc1 (stereo not shown) [Compound 209]	≥ 80%	≥ 80%		≥ 80%
CCSc1ccc(C2=NOC(c3cc(Cl)cc(Cl)c3)(C(F)(F)F)C2)cc1C#N (stereo not shown) [Compound 210]	≥ 80%	≥ 80%		
CCS(=O)(=O)c1ccc(C2=NOC(c3cc(Cl)cc(Cl)c3)(C(F)(F)F)C2)cc1C#N (stereo not shown) [Compound 211]	≥ 80%	≥ 80%		
Cc1cc(C2=NOC(c3cc(Cl)cc(Cl)c3)(C(F)(F)F)C2)ccc1S(C)(=O)=O (stereo not shown) [Compound 213]	≥ 80%	≥ 80%		
